This list holds what a sample rich in targets with a hit left over. This is a noisy data set. Only a part is listed here, and it is no random draw.
compound: COC(=O)/C=C/c1ccccc1 [methyl cinnamate]; assay: log2 ratio of iodoacetamide-alkyne labeling of the cysteine site, DMSO over compound (competition); higher = stronger covalent engagement of the cysteine by the compound, active = 1 or more; conditions: 500 µM; treatment time 1 h; system: HEK293T cell lysate
In short: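 Electrophile (500 µM) or vehicle was added to HEK293T lysate (2 mg/mL) for 1 h at ambient temperature before iodoacetamide alkyne labelling (1 h) and click coupling to sCIP-TMT reagents. After pooling, overnight trypsin digestion at 37 °C, streptavidin enrichment and acid elution, peptides were measured by Orbitrap Eclipse LC-MS/MS with FAIMS and quantified in FragPipe. Each cysteine's log2 competition ratio compares mean control-channel with mean compound-channel reporter intensity, control over compound. Data came from duplicate channels across three replicates, excluding cysteines quantified in only one replicate.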

Protein sequences, listed by entry. Tags and fused reporters are not part of them. Lines headed by an entry give the natural chain unless they say otherwise; changes in a name come on top.
UniProt O00231, whole entry: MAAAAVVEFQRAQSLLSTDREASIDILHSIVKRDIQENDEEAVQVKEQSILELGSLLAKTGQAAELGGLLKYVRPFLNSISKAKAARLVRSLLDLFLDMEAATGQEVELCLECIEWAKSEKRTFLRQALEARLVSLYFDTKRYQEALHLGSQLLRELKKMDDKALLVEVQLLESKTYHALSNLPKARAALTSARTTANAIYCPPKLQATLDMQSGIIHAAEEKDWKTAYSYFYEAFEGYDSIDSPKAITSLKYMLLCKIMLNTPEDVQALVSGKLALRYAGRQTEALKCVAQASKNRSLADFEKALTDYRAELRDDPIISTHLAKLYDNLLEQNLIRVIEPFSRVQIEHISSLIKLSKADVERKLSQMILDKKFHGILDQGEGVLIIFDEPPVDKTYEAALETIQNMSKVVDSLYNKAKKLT
UniProt O15355: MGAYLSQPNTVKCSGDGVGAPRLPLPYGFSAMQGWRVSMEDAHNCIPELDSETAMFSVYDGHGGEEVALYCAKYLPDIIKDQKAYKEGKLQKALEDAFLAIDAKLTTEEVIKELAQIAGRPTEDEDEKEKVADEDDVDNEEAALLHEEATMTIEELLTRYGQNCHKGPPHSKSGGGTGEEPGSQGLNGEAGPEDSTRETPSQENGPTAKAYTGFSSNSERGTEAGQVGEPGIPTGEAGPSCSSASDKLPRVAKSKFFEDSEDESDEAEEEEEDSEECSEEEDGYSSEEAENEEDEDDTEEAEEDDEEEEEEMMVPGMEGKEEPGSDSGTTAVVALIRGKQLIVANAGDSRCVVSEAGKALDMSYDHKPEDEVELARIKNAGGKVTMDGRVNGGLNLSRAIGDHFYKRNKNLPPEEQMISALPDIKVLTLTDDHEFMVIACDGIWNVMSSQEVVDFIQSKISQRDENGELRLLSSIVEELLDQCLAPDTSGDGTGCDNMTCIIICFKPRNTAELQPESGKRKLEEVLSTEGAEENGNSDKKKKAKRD
UniProt O15042: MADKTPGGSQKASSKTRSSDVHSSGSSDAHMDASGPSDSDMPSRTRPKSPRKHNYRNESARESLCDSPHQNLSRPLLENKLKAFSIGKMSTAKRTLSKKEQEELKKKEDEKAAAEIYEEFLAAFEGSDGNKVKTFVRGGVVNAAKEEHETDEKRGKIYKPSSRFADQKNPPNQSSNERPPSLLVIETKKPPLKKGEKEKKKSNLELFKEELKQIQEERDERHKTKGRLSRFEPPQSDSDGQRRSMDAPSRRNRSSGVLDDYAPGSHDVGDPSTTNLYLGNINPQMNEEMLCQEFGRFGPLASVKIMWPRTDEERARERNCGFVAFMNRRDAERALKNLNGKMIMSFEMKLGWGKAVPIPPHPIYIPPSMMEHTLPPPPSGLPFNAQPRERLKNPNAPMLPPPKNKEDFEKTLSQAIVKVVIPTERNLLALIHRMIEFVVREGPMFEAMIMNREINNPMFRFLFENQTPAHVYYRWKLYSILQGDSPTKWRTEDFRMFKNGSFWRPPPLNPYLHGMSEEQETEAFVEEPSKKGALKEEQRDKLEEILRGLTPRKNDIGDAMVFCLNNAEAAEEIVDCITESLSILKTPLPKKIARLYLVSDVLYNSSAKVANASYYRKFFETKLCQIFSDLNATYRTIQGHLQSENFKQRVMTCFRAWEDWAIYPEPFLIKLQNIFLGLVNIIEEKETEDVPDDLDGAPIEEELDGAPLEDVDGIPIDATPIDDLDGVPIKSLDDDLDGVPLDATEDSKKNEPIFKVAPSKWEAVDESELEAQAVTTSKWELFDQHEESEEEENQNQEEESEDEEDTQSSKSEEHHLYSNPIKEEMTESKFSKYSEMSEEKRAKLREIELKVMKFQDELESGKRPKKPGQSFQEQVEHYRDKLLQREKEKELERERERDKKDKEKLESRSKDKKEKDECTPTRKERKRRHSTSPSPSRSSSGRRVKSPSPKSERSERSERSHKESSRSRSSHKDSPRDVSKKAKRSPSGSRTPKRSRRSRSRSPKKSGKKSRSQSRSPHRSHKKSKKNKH
UniProt O14979: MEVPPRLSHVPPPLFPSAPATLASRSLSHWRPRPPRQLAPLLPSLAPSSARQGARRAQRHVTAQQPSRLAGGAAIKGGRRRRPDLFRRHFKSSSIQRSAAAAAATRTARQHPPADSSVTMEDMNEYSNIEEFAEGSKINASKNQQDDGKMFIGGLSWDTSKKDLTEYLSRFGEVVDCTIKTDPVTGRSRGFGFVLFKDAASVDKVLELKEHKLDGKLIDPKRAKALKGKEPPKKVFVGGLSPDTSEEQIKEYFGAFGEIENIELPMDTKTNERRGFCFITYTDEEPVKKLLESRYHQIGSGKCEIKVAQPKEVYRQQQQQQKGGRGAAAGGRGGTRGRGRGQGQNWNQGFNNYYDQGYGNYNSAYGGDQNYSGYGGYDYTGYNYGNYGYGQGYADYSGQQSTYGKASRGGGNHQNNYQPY
UniProt O14545: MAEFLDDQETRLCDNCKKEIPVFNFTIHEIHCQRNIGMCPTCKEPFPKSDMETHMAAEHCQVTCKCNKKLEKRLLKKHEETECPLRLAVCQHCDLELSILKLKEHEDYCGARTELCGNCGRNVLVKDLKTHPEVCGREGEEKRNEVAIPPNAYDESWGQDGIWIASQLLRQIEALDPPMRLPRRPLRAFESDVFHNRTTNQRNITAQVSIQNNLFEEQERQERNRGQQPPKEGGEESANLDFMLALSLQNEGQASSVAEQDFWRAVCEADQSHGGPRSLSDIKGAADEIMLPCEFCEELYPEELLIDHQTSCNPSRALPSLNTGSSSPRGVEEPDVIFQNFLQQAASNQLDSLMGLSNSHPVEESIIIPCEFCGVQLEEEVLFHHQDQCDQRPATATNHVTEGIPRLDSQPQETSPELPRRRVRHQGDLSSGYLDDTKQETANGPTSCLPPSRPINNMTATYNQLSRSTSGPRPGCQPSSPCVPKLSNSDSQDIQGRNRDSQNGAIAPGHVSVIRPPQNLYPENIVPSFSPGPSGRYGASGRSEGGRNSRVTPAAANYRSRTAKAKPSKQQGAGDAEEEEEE
UniProt O14654: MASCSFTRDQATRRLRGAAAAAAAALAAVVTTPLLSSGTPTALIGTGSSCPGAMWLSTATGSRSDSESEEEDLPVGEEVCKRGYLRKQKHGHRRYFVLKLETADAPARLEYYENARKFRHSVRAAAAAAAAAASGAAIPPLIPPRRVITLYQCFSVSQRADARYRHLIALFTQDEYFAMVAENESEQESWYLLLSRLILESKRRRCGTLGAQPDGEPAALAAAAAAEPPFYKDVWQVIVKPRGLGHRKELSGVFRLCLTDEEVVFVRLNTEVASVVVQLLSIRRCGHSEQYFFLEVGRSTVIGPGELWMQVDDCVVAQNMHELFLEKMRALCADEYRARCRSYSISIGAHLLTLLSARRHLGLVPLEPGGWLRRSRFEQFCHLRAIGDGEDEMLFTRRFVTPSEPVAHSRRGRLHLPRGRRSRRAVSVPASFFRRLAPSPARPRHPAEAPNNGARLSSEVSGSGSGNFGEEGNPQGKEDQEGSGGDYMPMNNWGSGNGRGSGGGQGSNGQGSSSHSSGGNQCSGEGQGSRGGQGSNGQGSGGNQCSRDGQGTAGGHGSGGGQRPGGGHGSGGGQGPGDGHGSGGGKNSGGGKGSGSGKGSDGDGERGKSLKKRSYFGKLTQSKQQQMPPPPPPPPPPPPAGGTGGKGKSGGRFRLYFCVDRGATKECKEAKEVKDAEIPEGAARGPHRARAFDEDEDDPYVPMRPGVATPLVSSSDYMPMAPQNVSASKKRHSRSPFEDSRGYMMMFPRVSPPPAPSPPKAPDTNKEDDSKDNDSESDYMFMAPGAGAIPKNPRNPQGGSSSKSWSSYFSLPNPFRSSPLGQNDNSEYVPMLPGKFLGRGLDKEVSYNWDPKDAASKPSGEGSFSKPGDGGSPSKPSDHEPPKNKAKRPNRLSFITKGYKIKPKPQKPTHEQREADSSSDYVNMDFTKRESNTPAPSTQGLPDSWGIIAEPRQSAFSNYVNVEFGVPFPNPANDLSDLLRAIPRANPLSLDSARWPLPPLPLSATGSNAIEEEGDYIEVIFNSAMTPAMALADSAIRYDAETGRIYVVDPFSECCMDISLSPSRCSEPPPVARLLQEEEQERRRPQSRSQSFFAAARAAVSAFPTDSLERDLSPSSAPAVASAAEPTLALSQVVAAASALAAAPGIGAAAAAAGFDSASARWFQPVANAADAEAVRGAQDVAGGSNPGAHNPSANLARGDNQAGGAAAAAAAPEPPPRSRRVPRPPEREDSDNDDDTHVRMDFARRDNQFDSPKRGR
UniProt A9UHW6: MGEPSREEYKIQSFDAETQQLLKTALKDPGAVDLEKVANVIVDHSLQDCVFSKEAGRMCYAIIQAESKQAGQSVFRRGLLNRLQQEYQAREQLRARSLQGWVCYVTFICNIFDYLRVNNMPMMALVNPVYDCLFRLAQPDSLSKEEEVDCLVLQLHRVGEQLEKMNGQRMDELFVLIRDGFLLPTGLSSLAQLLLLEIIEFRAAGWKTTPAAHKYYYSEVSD
UniProt O00567: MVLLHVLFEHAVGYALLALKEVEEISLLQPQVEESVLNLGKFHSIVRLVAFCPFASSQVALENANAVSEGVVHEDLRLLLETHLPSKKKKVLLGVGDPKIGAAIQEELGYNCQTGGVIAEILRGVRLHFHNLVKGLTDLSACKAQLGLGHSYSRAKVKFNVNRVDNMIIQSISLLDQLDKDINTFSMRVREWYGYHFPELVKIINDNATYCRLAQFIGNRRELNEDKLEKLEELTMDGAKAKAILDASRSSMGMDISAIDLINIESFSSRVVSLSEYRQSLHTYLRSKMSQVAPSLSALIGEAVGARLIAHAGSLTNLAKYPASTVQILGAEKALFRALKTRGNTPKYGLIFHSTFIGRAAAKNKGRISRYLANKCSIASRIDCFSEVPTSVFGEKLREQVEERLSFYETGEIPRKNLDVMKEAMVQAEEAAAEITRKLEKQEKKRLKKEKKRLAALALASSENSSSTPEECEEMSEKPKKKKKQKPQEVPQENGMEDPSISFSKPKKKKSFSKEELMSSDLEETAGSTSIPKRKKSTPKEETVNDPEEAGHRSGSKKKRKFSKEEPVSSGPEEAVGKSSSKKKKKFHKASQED
UniProt O00148, whole entry, looked up: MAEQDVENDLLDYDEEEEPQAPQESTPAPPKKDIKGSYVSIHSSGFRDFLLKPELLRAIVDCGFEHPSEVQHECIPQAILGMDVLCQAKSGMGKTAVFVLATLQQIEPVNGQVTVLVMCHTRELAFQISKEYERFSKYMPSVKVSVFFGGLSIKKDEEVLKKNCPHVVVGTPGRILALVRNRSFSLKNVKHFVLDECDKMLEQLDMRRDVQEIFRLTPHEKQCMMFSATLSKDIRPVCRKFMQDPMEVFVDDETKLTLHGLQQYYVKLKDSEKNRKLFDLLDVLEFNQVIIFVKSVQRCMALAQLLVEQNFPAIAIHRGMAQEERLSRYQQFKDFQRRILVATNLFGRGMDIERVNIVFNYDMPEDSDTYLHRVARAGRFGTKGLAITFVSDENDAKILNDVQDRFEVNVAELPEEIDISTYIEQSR
UniProt O14980, whole entry, looked up: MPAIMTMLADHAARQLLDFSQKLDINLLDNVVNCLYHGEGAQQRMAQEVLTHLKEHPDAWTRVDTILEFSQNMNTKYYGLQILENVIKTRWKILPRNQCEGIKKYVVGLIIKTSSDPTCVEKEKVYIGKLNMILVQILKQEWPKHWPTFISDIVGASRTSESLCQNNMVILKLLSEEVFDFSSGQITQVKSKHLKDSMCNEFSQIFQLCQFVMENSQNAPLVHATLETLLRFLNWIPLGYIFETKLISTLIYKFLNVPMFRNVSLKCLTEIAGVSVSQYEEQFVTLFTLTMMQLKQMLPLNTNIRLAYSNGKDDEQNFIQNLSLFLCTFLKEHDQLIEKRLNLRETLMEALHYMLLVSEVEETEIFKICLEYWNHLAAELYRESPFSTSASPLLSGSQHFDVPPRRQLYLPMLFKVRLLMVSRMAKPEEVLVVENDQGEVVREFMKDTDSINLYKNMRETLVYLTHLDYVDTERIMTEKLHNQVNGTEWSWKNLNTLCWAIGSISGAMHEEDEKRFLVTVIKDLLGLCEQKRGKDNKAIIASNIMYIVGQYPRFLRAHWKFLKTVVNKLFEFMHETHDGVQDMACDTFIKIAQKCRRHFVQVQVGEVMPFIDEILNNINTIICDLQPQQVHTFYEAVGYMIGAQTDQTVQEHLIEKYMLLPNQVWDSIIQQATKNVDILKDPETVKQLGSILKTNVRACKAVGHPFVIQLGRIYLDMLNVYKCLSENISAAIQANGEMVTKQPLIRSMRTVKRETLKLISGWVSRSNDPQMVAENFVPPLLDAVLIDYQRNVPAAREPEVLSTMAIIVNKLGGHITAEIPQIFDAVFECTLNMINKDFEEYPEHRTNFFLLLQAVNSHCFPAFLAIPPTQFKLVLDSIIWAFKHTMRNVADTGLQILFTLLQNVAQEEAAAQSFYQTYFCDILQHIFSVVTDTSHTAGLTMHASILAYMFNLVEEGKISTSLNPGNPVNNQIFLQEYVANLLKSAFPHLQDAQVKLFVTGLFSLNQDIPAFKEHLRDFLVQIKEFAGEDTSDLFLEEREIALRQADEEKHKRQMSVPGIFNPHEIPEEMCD

log2 ratio of iodoacetamide-alkyne labeling, inactive:
IPO5 C229 (UniProt O00410) -0.125
PSMD11 C289 (UniProt O00231) 0.409
IGF2BP3 C194 (UniProt O00425) 0.538
PPM1G C241 (UniProt O15355) 0.229
AGPS C214 (UniProt O00116) -0.117
UniProt O15042_C65 0.111
EIF3D C437 (UniProt O15371) 0.411
UniProt O14979_C277 -0.075
TRAFD1 C267 (UniProt O14545) 0.255
PPM1G C164 (UniProt O15355) 0.359
IRS4 C545 (UniProt O14654) 0.341
MIF4GD C49 (UniProt A9UHW6) 0.104
UniProt O00567_C211 0.29
UniProt O00567_C472 0.305
UniProt O00148_C223 0.105
XPO1 C34 (UniProt O14980) 0.0581

A portion from the list above, for reference:
log2 ratio of iodoacetamide-alkyne labeling, inactive:
PSMD11 C289 (UniProt O00231) 0.409
IGF2BP3 C194 (UniProt O00425) 0.538
PPM1G C241 (UniProt O15355) 0.229
AGPS C214 (UniProt O00116) -0.117

Source: the supplement of paper PMC11006884
